Our source for the binding values is paper PMC5114553.

The chains behind the UniProt entries cited, without tags or fusion partners. Where a name states a change or a piece, a line headed by the entry shows the natural chain unless it says otherwise.
UniProt P54830: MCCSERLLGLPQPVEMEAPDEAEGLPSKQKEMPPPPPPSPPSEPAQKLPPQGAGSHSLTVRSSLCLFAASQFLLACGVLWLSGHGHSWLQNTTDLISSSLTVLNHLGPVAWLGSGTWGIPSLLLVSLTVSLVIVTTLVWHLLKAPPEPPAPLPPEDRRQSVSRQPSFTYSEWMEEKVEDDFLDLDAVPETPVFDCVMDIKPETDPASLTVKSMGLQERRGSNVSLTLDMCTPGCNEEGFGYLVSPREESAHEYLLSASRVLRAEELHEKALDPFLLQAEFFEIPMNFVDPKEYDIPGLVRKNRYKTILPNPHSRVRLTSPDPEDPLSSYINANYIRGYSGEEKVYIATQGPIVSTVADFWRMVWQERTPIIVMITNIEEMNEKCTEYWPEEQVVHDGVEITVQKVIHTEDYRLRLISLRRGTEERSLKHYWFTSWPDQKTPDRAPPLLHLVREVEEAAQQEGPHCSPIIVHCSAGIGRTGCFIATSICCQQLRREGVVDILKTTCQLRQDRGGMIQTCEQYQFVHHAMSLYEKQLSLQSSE

Results are given in words; binding and its absence hold for the method and conditions named. In cells and extracts the contact can be indirect.

The target of the test is GST-STEP46 (substrate-trapping mutant) (UniProt P54830). Kind of test: pull-down; GST-STEP fusion proteins (1 μg) on glutathione-sepharose 4B beads incubated with mouse hippocampal synaptosomal lysates (100 μg) in co-IP buffer overnight at 4 °C; blots with selective antibodies; only the target purified.

As for “NMDA receptor subunit GluN2A (from UniProt P35436 23-1464)”, the binding entry was “no binding”.
